One molecule from publication PMC7256045 can be followed below.

These are yes or no findings as the source states them, for the method shown. In cells and extracts the contact can be indirect. Some entries that bind do so weakly or less than the wild type. Sequences can lack the tags named with a protein.

The assay concerns the target T1, BCAT2 overexpressed in HEK293T cells (Flag-BCAT2) (human) (UniProt O15382).
T1 sequence: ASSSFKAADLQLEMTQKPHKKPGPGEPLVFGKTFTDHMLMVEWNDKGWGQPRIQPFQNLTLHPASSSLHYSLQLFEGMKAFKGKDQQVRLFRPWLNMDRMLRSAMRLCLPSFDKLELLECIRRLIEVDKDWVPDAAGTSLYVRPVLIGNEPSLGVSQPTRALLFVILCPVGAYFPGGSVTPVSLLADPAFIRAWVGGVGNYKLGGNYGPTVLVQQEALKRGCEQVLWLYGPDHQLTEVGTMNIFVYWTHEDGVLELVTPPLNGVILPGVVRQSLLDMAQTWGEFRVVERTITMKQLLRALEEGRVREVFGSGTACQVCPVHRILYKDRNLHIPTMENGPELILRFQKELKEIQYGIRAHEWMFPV
Kind of assay: co-IP; SIRT1-7 overexpressed individually with BCAT2 in HEK293T cells; lysis in 0.3% Nonidet P40 buffer (150 mM NaCl, 50 mM Tris-HCl pH 7.5); Flag beads, 4 °C, 3 h; western blot. In general terms: Immunoblotting shows a protein as a band on a membrane.

B1: SIRT4 overexpressed in HEK293T cells (enzyme, UniProt Q9Y6E7 29-314)
chain: IGLFVPASPPLDPEKVKELQRFITLSKRLLVMTGAGISTESGIPDYRSEKVGLYARTDRRPIQHGDFVRSAPIRQRYWARNFVGWPQFSSHQPNPAHWALSTWEKLGKLYWLVTQNVDALHTKAGSRRLTELHGCMDRVLCLDCGEQTPRGVLQERFQVLNPTWSAEAHGLAPDGDVFLSEEQVRSFQVPTCVQCGGHLKPDVVFFGDTVNPDKVDFVHKRVKEADSLLVVGSSLQVYSGYRFILTAWEKKLPIAILNIGPTRSDDLACLKLNSRCGELLPLIDPC
Regarding B1, the binding result is reported as “binds”.
